The other results are listed elsewhere or left out. Small differences around the control level are noise.

The chains behind the UniProt entries cited, without tags or fusion partners. Where a name states a change or a piece, a line headed by the entry shows the natural chain unless it says otherwise.
UniProt Q3TLI0, whole entry: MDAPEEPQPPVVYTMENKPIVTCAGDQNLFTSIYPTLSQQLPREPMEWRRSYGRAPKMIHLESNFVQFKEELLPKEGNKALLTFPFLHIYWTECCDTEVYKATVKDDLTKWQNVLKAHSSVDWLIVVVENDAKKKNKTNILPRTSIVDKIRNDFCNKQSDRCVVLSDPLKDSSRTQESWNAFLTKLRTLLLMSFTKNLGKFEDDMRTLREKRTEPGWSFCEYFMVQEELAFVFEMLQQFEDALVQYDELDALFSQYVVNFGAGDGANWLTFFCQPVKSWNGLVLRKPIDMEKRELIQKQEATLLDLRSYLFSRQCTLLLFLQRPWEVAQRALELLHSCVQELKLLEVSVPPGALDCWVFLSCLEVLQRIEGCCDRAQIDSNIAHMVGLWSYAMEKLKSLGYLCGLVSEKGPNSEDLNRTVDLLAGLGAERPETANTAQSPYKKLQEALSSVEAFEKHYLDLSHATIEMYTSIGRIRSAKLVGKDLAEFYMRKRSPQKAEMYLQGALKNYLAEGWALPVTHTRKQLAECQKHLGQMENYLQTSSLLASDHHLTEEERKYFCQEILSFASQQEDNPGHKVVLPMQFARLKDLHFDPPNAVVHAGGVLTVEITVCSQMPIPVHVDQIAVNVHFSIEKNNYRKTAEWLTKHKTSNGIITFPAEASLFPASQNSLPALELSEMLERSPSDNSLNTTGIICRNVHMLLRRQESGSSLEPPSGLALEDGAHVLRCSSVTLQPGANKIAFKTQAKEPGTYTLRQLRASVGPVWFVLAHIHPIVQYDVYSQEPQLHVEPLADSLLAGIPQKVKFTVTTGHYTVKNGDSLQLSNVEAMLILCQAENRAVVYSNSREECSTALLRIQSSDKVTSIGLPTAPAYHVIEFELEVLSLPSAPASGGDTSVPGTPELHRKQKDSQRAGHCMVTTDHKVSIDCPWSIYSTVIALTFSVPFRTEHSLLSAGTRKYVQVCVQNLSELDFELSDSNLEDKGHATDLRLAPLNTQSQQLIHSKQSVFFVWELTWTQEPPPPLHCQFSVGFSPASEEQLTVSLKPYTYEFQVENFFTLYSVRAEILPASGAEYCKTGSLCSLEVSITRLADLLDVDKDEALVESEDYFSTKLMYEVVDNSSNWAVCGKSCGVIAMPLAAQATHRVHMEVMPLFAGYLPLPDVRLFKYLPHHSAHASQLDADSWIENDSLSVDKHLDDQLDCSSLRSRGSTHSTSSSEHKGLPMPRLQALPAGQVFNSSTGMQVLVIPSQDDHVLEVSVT
UniProt Q3TJ91: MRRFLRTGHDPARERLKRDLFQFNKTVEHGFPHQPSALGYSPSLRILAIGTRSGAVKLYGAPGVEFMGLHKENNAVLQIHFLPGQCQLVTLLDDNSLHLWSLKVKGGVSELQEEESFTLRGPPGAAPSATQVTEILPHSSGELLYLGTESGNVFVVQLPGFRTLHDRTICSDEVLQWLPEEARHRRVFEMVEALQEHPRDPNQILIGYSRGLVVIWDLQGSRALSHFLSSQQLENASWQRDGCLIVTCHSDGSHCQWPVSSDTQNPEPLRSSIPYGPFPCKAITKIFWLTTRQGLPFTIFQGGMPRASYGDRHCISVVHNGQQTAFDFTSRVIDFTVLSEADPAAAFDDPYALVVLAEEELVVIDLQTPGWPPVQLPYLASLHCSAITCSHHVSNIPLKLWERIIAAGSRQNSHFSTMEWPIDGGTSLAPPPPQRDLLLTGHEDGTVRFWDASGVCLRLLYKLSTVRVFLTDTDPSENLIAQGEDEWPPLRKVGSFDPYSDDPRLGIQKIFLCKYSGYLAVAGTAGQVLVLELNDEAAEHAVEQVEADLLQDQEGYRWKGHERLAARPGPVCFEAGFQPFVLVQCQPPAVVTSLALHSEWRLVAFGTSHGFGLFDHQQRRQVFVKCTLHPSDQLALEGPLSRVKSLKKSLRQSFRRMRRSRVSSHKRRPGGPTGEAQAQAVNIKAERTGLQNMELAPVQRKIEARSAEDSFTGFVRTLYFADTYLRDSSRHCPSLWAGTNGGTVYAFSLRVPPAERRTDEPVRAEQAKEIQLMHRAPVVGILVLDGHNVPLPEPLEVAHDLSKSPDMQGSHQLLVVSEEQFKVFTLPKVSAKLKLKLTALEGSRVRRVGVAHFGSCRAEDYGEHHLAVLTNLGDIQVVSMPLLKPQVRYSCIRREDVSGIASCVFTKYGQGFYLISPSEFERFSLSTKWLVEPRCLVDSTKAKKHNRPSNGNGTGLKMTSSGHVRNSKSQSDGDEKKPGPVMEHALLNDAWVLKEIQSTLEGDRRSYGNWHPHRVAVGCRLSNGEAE
UniProt Q3TAS6: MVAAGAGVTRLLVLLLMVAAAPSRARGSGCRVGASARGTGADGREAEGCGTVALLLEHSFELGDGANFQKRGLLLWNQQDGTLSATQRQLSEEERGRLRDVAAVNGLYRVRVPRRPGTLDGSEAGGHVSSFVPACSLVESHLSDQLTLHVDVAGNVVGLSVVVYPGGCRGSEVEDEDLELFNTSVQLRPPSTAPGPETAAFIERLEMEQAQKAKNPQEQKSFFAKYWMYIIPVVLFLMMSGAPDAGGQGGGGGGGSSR
UniProt Q08501: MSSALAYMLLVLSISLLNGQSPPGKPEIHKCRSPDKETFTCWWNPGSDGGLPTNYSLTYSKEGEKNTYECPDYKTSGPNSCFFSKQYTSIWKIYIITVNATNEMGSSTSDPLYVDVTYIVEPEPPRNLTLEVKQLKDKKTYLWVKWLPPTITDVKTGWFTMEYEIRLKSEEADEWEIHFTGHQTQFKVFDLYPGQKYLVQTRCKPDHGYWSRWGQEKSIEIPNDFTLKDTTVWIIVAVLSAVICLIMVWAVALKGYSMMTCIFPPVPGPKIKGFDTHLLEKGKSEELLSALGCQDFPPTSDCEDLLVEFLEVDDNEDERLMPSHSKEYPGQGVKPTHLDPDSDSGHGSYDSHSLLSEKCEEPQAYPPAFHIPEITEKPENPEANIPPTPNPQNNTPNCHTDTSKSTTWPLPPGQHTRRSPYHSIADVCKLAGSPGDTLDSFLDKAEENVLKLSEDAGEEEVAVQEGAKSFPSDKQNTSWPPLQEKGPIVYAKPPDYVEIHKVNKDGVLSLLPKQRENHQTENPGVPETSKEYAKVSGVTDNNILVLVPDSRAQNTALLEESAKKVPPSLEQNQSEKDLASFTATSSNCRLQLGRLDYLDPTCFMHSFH
UniProt Q2KN98: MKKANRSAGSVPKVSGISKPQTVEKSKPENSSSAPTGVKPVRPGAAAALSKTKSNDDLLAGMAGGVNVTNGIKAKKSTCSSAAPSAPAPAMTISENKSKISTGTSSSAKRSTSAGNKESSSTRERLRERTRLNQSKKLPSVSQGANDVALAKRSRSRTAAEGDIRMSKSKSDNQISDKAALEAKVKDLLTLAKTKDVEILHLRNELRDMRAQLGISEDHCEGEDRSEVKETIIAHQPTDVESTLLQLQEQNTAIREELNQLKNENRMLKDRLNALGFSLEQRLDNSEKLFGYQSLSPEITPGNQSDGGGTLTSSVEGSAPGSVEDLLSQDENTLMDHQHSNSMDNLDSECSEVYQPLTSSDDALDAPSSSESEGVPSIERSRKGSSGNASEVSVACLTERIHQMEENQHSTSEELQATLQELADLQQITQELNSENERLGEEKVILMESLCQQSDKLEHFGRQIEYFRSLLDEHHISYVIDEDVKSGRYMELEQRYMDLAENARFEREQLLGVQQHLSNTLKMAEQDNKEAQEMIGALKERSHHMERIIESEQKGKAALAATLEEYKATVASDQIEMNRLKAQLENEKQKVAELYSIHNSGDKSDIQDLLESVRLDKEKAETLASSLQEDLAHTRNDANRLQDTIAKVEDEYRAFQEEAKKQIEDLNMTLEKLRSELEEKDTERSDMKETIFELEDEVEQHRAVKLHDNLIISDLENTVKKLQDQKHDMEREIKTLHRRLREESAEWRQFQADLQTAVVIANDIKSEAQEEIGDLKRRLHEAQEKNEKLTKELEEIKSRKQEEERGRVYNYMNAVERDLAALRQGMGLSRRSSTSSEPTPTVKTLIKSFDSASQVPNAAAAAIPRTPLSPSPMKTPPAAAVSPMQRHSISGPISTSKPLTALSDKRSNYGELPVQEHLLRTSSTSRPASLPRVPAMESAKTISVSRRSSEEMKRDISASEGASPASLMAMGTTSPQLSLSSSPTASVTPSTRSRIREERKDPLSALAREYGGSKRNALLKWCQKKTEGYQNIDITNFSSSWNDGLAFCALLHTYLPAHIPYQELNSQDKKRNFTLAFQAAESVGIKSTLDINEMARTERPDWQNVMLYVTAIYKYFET
UniProt Q3TAP4: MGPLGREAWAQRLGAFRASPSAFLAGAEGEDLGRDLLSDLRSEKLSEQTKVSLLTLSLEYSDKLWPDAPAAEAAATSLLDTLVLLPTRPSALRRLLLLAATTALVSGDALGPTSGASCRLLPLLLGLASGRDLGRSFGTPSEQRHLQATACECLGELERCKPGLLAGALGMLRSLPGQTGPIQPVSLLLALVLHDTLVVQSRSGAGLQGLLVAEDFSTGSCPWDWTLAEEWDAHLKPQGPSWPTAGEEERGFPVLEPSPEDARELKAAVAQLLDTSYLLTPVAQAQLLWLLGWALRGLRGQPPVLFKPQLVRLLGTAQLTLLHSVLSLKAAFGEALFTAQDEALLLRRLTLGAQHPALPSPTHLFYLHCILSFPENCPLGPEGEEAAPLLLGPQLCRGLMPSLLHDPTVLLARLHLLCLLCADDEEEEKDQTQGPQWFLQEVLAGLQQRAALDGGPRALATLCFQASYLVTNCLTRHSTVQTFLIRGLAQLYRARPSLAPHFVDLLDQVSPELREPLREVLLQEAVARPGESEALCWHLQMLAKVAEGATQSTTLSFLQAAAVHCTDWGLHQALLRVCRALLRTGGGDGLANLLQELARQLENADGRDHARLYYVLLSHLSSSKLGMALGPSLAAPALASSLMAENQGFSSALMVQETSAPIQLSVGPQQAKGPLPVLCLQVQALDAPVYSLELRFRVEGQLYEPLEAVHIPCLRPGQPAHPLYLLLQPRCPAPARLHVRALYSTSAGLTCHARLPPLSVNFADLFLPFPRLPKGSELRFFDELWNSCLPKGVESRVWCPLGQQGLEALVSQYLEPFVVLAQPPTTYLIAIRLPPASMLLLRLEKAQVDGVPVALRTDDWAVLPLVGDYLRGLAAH
UniProt Q3U182: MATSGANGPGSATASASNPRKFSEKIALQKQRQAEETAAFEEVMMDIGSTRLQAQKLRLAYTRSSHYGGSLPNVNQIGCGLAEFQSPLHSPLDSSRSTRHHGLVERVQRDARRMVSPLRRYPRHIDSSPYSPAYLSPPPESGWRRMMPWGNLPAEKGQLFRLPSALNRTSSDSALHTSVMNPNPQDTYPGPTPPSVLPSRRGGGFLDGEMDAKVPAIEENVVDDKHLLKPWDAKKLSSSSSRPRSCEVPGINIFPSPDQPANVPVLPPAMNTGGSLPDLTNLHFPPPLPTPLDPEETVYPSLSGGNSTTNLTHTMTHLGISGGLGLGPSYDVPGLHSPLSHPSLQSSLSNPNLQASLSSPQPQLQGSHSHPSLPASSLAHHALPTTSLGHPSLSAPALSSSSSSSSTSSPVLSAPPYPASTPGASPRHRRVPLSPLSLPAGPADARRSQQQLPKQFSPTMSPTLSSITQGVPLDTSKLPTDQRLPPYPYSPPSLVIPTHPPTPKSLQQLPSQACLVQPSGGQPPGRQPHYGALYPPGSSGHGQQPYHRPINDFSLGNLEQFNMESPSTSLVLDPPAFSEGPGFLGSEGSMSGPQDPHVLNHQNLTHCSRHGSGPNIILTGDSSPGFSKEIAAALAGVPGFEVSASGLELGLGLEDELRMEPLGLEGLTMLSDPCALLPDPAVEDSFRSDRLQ
UniProt Q3SXD3: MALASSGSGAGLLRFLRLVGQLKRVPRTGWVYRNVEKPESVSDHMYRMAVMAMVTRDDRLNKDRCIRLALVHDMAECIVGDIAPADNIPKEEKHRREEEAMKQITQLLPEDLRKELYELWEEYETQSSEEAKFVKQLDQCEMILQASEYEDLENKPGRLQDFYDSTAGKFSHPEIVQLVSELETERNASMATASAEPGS
UniProt Q06770: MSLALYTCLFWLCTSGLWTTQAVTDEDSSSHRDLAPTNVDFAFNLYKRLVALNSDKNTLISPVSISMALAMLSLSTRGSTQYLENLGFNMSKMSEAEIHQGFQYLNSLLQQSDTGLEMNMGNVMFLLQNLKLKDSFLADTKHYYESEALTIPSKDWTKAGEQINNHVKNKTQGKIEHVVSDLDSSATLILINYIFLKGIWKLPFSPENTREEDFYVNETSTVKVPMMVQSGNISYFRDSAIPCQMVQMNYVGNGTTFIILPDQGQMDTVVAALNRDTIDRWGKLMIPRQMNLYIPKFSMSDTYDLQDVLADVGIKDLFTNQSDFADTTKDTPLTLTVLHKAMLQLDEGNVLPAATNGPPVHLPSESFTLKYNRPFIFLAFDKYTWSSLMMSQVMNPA

Compound in the experiment: CN[C@@H]1C[C@H]2O[C@@](C)([C@@H]1OC)n1c3ccccc3c3c4c(c5c6ccccc6n2c5c31)C(=O)NC4 [staurosporine]
Kind of experiment: log2 fold change of tryptic peptide abundance, ligand vs vehicle (limited proteolysis) (log2 ratio); higher = more trypsin-susceptible (destabilized). The note with it: ligand concentration: 20 uM; sample: mouse liver crude lysate; replicate design: treated separately.
On to “UniProt Q3TLI0 (peptide sequence: KTAEWLTK, peptide start residue: 639)”, for which the log2 fold change was determined as 0.276.
As for “UniProt Q3TJ91 (peptide sequence: TLYFADTYLR, peptide start residue: 717)”, the log2 fold change is 0.272.
“UniProt Q3TAS6 (peptide sequence: LEMEQAQK, peptide start residue: 205)”: the log2 fold change is -0.125.
Consider “UniProt Q08501 (peptide sequence: RSPYHSIADVCK, peptide start residue: 418)”, for which the log2 fold change stood at 0.182.
For “UniProt Q2KN98 (peptide sequence: AQLGISEDHCEGEDR, peptide start residue: 211)”, the log2 fold change came out at 0.386.
As for “UniProt Q3TAP4 (peptide sequence: GQPPVLFKPQLVR, peptide start residue: 300)”, the figure is 0.107.
For “UniProt Q3TCJ1 (peptide sequence: PSTHPDEDPR, peptide start residue: 399)”, the log2 fold change was -0.159.
In the case of “UniProt Q3U182 (peptide sequence: HLLKPWDAK, peptide start residue: 226)”, the log2 fold change was 0.441.
Consider “UniProt Q3SXD3 (peptide sequence: LQDFYDSTAGK, peptide start residue: 159)”, for which the log2 fold change is -0.201.
Consider “UniProt Q06770 (peptide sequence: LKDSFLADTK, peptide start residue: 132)”, for which the log2 fold change was determined as 0.0836.
For “UniProt Q3TMH2 (peptide sequence: TVNLFPQYVKDEIK, peptide start residue: 397)”, the log2 fold change was -0.112.

The values are drawn from the supplement of paper PMC12819154, “High-throughput peptide-centric local stability assay extends protein–ligand identification to membrane proteins, tissues and bacteria” (Nature Structural & Molecular Biology, 2025).
